Results published in patent US8846661B2, “Diazahomoadamantane derivatives and methods of use thereof” (AbbVie Inc., priority 2009, dated 2014).

Target: α7 NNR (UniProt Q05941)
Conditions: [3H]-DPPB binding

With N#Cc1cccc(-c2cncc(N3CC4CC5CC3CN(C5)C4)c2)c1 (stereo not shown) [Example 90, 3-[5-(1,4-diazatricyclo[4.3.1.1^3,8]undec-4-yl)pyridin-3-yl]benzonitrile] the Ki was 48.5 nM.
